Test results: publication PMC9558416

The chains behind the UniProt entries cited, without tags or fusion partners.
UniProt P07355: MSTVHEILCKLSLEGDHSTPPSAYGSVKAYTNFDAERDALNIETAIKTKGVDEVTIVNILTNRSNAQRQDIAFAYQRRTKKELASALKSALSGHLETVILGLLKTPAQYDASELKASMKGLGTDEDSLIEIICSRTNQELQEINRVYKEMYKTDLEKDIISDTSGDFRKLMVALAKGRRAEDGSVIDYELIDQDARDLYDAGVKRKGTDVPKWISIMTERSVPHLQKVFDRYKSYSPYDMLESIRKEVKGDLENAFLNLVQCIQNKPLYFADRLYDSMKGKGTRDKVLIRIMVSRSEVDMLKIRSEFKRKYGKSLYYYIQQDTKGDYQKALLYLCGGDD

Target: T1, FLAG-RalA (UniProt P11233)
T1 sequence: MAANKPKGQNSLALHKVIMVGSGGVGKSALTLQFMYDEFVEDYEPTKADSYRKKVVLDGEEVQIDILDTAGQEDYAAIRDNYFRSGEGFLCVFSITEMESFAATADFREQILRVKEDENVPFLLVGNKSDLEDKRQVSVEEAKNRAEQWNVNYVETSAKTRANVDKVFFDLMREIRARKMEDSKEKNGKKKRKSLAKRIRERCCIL
Assay: affinity purification with mass spectrometry; total cell protein incubated with the antibody for FLAG 12 h at 4 °C, protein A/G magnetic beads 1 h at room temperature; eluate to LC-MS/MS; proteins only identified in the FLAG-RalA group

binding: binds
Substance: Annexin A2 (ANXA2), endogenous (from UniProt P07355 1-339)

No constants are given. Whether binding was seen depends on the method and setting. In cells and extracts the contact can be indirect. These calls come from enrichment with a bait or labelling near it, and not all partners need be listed. Where a sequence is shown, tags or fusion partners need not be part of it.
